Chains of the proteins cited; added tags and fusions are not shown. Lines headed by an entry give the natural chain unless they say otherwise; changes in a name come on top.
UniProt P51450: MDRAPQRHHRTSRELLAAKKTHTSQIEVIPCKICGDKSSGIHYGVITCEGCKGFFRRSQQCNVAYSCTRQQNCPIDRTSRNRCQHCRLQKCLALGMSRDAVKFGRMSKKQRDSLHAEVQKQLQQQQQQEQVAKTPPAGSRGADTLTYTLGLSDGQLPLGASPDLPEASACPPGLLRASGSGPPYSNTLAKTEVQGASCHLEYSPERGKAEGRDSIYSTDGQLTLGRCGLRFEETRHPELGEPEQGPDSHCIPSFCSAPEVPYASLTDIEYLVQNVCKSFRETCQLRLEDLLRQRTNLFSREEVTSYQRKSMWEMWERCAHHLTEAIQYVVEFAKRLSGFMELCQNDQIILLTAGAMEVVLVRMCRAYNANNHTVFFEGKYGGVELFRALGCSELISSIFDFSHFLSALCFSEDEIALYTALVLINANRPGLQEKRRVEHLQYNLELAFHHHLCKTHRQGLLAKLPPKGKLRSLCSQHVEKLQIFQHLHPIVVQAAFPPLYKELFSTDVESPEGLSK

About 17,000 (5.5%) of roughly 310,000 compounds were called active. The inconclusive results got no clear call from the source; some entries with a clear call stand among them for comparison. Calls come from the whole dose curve; as a rule, active = well fitted inhibition curve with a large enough effect; inconclusive = small, poorly fitted or top-dose-only effect, or effect the other way; inactive = no such curve, though single readings can be large or run the other way. Potencies beside an inconclusive call are fits to weak or partial responses and may not hold up.
These compounds were tested against Nuclear receptor ROR-gamma (Mus musculus) (UniProt P51450) (assay: qHTS for inhibitors of ROR gamma transcriptional activity). Details: Drosophila S2 Gal4-RORgamma UAS-luciferase reporter, 20 h; activity change, negative = inhibition: at 53.6 µM (top of the series).
Outline: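 Stably transfected Drosophila Schneider cells are the test system, with ROR gamma fused to Gal4 and luciferase under UAS control; luminescence is read after 20 hr of 700 uM copper sulfate induction at ambient temperature.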
In the case of O=C(CSc1ccc(-c2cccc([N+](=O)[O-])c2)nn1)NC1CCCC1, the Potency is reported as active: 1.78 µM.
Cc1ccc(S(=O)(=O)N2CCOCC2)cc1NC(=O)COC(=O)CNC(=O)c1ccc(C(C)(C)C)cc1 was tested, and the Potency was inconclusive: 10 µM [activator, partial curve].
With CN(C)CCNS(=O)(=O)c1ccc(Cl)cc1 the “activity change, negative = inhibition” value was inactive: -12.6%.
With COC(=O)CCC(=O)OC1(C)C(=O)C=C2C=C(C3CC3)N(c3ccccc3)C=C2C1=O (centres undefined) the “activity change, negative = inhibition” value was inactive: -10.3%.
With COc1ccc(CCN(C)C(=S)Nc2cccc(C)c2)cc1OC the Potency was inconclusive: 17.8 µM [inhibitor, single point].
With S=C(c1cn(Cc2ccccc2)c2ccccc12)N1CCOCC1 the Potency was active: 11.2 µM.
With COCc1[nH]nc2c1C(C1C=CCCC1)C(C#N)=C(N)O2 (centres undefined) the Potency was inconclusive: 35.5 µM [activator, single point].
With COc1ccccc1Nc1nc(-c2sc(NC(=O)C(C)(C)C)nc2C)cs1 the Potency was inconclusive: 11.2 µM [inhibitor, partial curve, poor fit].
With CC(=O)NC1=NN(C(C)=O)C2(CCCCC2)S1 the Potency was inconclusive: 0.708 µM [activator, single point].
With O=C(CCN1CCOCC1)c1ccc2c(c1)OCCO2 the Potency was inconclusive: 5.01 µM [inhibitor, full curve, poor fit].
For O=C(CN1CCCC1)Nc1ccccc1C(=O)c1ccccc1, the “activity change, negative = inhibition” value was inactive: 20%.
In the case of Cc1cccc(NC(=S)NC2CC3CCCC(C2)N3Cc2cccs2)c1 (centres undefined), the Potency is reported as active: 5.01 µM.
With Cc1ccc(/C=C2\SC(=S)N(CCCC(=O)Nc3cccnc3)C2=O)cc1 the Potency was active: 6.31 µM.
For COC(=O)Nc1ccc(OCc2ccccc2)cc1, the Potency was inconclusive: 5.62 µM [activator, partial curve].
In the case of COC(=O)c1cccc(C(=O)N2CCC(CO)(Cc3ccccc3Cl)CC2)c1, the “activity change, negative = inhibition” value is reported as inactive: 37.6%.
In the case of CCOC(=O)c1ccc(-c2csc(NC(=O)CN3CCC(C)CC3)n2)cc1, the Potency is reported as inconclusive: 10 µM [inhibitor, partial curve, poor fit].
With S=C(NCC1CC1)N/N=C/c1ccccc1Cl the Potency was active: 5.62 µM.
In the case of COc1ccc(/C(N)=N/OC(=O)Cc2ccccc2OC)cc1, the Potency is reported as inconclusive: 12.6 µM [activator, partial curve].
COc1ccc(C(CNC(=O)c2cc3ccccc3o2)N2CCCCC2)cc1 (centres undefined) was tested, and the “activity change, negative = inhibition” value was inactive: -11.1%.
For O=C(c1ccco1)N1CCN(C(=O)c2cc(-c3ccccn3)nc3ccccc23)CC1, the Potency was inconclusive: 3.16 µM [activator, partial curve].
In the case of Cc1cc(SCC(=O)N/N=C/c2ccc(O)cc2O)c(C)cc1Br, the Potency is reported as inconclusive: 5.62 µM [inhibitor, single point].
COc1cc(/C=N/NC(=S)NC2CC3C=CC2C3)cc(OC)c1OC (centres undefined) was tested, and the Potency was active: 1.78 µM.
In the case of S=C(N/N=C1\CCc2ccccc21)NC1CCCCC1, the Potency is reported as active: 1 µM.
In the case of CCCCc1cn([C@@H](CCCCNC(=O)OC(C)(C)C)C(=O)N2CCN(C(=O)OC(C)(C)C)CC2)nn1, the Potency is reported as inconclusive: 17.8 µM [activator, single point].
COc1cc(C(=O)O/N=C2\C=CC(=O)C(C)=C2)cc(OC)c1OC was tested, and the Potency was active: 5.01 µM.
With Cc1ccc2nc(N(CCCN(C)C)C(=O)CCc3ccccc3)sc2c1 the Potency was inconclusive: 35.5 µM [inhibitor, single point].
For COc1cccc(-c2cc(C(F)(F)F)nc(-n3cc(Cl)cn3)n2)c1, the “activity change, negative = inhibition” value was inactive: -9.43%.
For Cc1ccc(NC(=O)c2ccc(COc3ccc4c(c3)CCC4)cc2)c(C)c1, the Potency was active: 2.24 µM.
With COC(=O)[C@H](C)NC(=O)Nc1ccc(OC)cc1OC the Potency was inconclusive: 2.82 µM [inhibitor, partial curve, poor fit].
CCOc1ccc(NC(=O)CN2CCN(CC(=O)Nc3ccc(OC)cc3)CC2)cc1 was tested, and the Potency was inconclusive: 35.5 µM [activator, single point].
In the case of O=C(NN=C1C2CC3CC(C2)CC1C3)c1ccncc1, the “activity change, negative = inhibition” value is reported as inactive: -32%.
With CC(C)(C)NC(=O)CSc1nnc(SCC(=O)NC(C)(C)C)s1 the “activity change, negative = inhibition” value was inactive: -0.322%.
In the case of Cc1cc(C(=O)CSc2nc3ccccc3[nH]2)c(C)n1CC1CCCO1 (centres undefined), the Potency is reported as inconclusive: 11.2 µM [inhibitor, single point].
In the case of COCCN1C(=O)N[C@@H](c2ccc(Br)cc2)C(C(C)=O)=C1C, the Potency is reported as inconclusive: 25.1 µM [activator, single point].
With O=C(N/N=C/c1cccs1)c1cccc(S(=O)(=O)Nc2ccc(Cl)cc2)c1 the Potency was active: 3.98 µM.
COc1cccc2sc(Nc3nc(C)c(C(C)=O)s3)nc12 was tested, and the Potency was inconclusive: 0.0251 µM [inhibitor, partial curve, poor fit].
For CCOC(=O)c1c(C)oc2ccc(OCc3cc(C(=O)OC)oc3C)cc12, the “activity change, negative = inhibition” value was inactive: -19.3%.
COc1ccc(-c2noc(COc3ccc4ccccc4c3Br)n2)cc1OC was tested, and the Potency was inconclusive: 0.158 µM [activator, partial curve, poor fit].
In the case of COc1cc2c(cc1NC(=S)Nc1cccc(C)c1)oc1ccccc12, the Potency is reported as inconclusive: 22.4 µM [inhibitor, single point].
For O=C(CC1S/C(=N/N=C/c2cccs2)NC1=O)Nc1ccc(Cl)cc1 (centres undefined), the Potency was inconclusive: 35.5 µM [inhibitor, single point].
For COCCCNc1oc(COc2ccc(Cl)cc2Cl)nc1C#N, the Potency was inconclusive: 20 µM [inhibitor, single point].
For CCc1nnc(NC(=O)CSc2nnc(CNC(=O)c3cc(OC)c(OC)c(OC)c3)o2)s1, the “activity change, negative = inhibition” value was inactive: -15.7%.
Cc1ccc(N2CCN(C(=S)Nc3ccccc3C)CC2)cc1 was tested, and the Potency was active: 10 µM.
N#C/C(=N\Nc1ccc(Cl)c(Cl)c1)C(=O)C1CC1 was tested, and the Potency was inconclusive: 6.31 µM [inhibitor, single point].
In the case of S=C(NCCN1CCOCC1)Nc1ccc(Br)cc1, the Potency is reported as inconclusive: 17.8 µM [inhibitor, single point].
With Cc1csc2c(=O)sc(NC(=O)c3ccc(F)cc3Cl)nc12 the Potency was inconclusive: 22.4 µM [activator, single point].
For Cc1nn(CCCC(=O)Nc2cc(Oc3ccc(F)cc3)cc([N+](=O)[O-])c2)c(C)c1[N+](=O)[O-], the Potency was inconclusive: 35.5 µM [inhibitor, single point].
With CCCNC(=O)c1nn2cc(Br)cnc2c1Br the Potency was inconclusive: 0.282 µM [activator, partial curve, poor fit].
For Cc1ccc(CS(=O)(=O)CC(C)(O)c2ccc(Cl)cc2)cc1 (centres undefined), the “activity change, negative = inhibition” value was inactive: 22.3%.
With CCn1c(COc2ccccc2)nc2ccccc21 the Potency was inconclusive: 0.0056 µM [inhibitor, full curve, poor fit].
With C/C=C/C=N\NC(=O)c1ccncc1 the Potency was inconclusive: 17.8 µM [inhibitor, single point].
O=C(O)CCC(=O)N1CCN(c2nc(-c3ccccc3)c3ccccc3n2)CC1 was tested, and the “activity change, negative = inhibition” value was inactive: 37%.
In the case of O=C1CC(N2CCN(C3CC(=O)N(CCc4ccccc4)C3=O)CC2)C(=O)N1CCc1ccccc1 (centres undefined), the “activity change, negative = inhibition” value is reported as inactive: 38.3%.
With COc1ccc(OCCSc2nnc(-c3ccc(OC)cc3)n2N)cc1 the Potency was inconclusive: 5.62 µM [activator, single point].
In the case of Cc1ccc(S(=O)(=O)c2nc(Nc3nccs3)sc2Cl)cc1, the Potency is reported as inconclusive: 20 µM [inhibitor, single point].
In the case of O=C(NCC(c1ccc(F)cc1)N1CCOCC1)c1ccc(C(=O)c2ccccc2)cc1 (centres undefined), the “activity change, negative = inhibition” value is reported as inactive: -2.14%.
For O=C(c1ccc(S(=O)(=O)c2ccc(Cl)cc2)cc1)N1CCOCC1, the “activity change, negative = inhibition” value was inactive: 23.6%.
With O=C(c1nc2ccccc2[nH]1)c1ccccc1[N+](=O)[O-] the “activity change, negative = inhibition” value was inactive: 18.2%.
With CC(C(=O)NCc1ccc2c(c1)OCO2)N1c2cccc3cccc(c23)S1(=O)=O (centres undefined) the Potency was inconclusive: 12.6 µM [activator, partial curve].
O=C(N/N=C/c1cc(Cl)cc([N+](=O)[O-])c1O)C1CC1 was tested, and the Potency was active: 0.631 µM.
S=C(NCC1(c2ccccc2)CCCC1)Nc1ccccc1 was tested, and the Potency was active: 1.58 µM.
COc1ccc(CCN2C(=O)CSC2=S)cc1OC was tested, and the Potency was inconclusive: 11.2 µM [inhibitor, single point].
With O=C(N/N=C1\C2CN3CCN(C2)CC1(c1ccccc1)C3)c1ccc(F)cc1 the Potency was inconclusive: 35.5 µM [inhibitor, single point].
With COc1ccc(-c2cc3ccccc3nc2N)cc1OC the Potency was inconclusive: 12.6 µM [activator, single point].
O=C(COc1ccc(/C=N/NC(=O)CSCc2ccc([N+](=O)[O-])cc2)cc1)NCc1ccco1 was tested, and the Potency was inconclusive: 10 µM [activator, partial curve].
In the case of CC(C)(C)c1csc(SCC(=O)Nc2ccc(Cl)cn2)n1, the Potency is reported as inconclusive: 11.2 µM [activator, partial curve].
Cc1cc(C)n(-c2nc(NCCCN(C)C)c3c4c(sc3n2)CCCC4)n1 was tested, and the Potency was active: 3.98 µM.
With CCOc1ccccc1CN1CCN(Cc2ccc3cccc(OC)c3n2)CC1CCO (centres undefined) the “activity change, negative = inhibition” value was inactive: -0.546%.
In the case of COc1cccc(-c2cccc(NC(=O)C3CCN(Cc4cccc(C)n4)CC3)c2)c1, the Potency is reported as inconclusive: 15.8 µM [inhibitor, partial curve].
For S=C(Nc1ccccc1Cl)N(Cc1ccccc1)Cc1ccccn1, the “activity change, negative = inhibition” value was inactive: 24.4%.
In the case of C/C(N)=C(/C#N)C(=O)CSc1nnc(-c2ccc(OC(F)F)cc2)o1, the Potency is reported as inconclusive: 2.82 µM [activator, partial curve, poor fit].
O=C(NCC1CCCO1)c1cnn2c1NC(c1ccccc1)CC2C(F)(F)F (centres undefined) was tested, and the “activity change, negative = inhibition” value was inactive: -2.98%.
In the case of O=C(N/N=C/C1C(c2ccccc2)C1(Cl)Cl)c1cccc(Cl)c1 (centres undefined), the Potency is reported as active: 2.82 µM.
In the case of Cc1ccc(SCc2cn3cc(Cl)ccc3n2)cc1, the Potency is reported as inconclusive: 3.16 µM [inhibitor, partial curve, poor fit].

Source: PubChem BioAssay AID2551 (National Center for Advancing Translational Sciences (NCATS), 2010)
% is set by controls: 0 for no effect and ±100 for the full control effect; potency is the fitted concentration of half-maximal effect.
Note: nearly all actives have a fitted effect of over 60% in size.
